Test results: PubChem BioAssay AID2685 (National Center for Advancing Translational Sciences (NCATS), 2010)
Some of the results follow. Shown are side measurements of this screen, not its main read-out; they come without a call. Most of these compounds were active or inconclusive in the main read-out, so they are no random draw. Potencies come from curve fits of mixed quality, noted in brackets.

Assay: qHTS Assay for Lipid Storage Modulators in Drosophila S3 Cells;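 for cell number change: cells counted by Cell Tracker Red CMTPX staining in the red channel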
Details: BODIPY lipid droplet fluorescence, 18-24 h; for cell number change: measured here: cell count max response, cells fed with added oleic acid
Summary of the method: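 Drosophila S3 cells loaded with oleic acid (400 uM, as added) and compounds at several concentrations; lipid droplets imaged by 488-nm laser-scanning cytometry, 500–530 nm intensity and object ratio to cell channel. Percent activity normalized to 20 uM Triacsin C.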

[1] = measured here: cell number channel AC50, cells fed with added oleic acid
[2] = measured here: lipid fluorescence (Fed channel) AC50, cells fed with added oleic acid

Row | Structure (SMILES) | cell number change [%] | AC50 [1] | AC50 [2]
1 | COc1c2ccoc2c(OC(C)=O)c2oc(C)cc(=O)c12 | -43.1 | 1640 nM [falling, partial curve] | 580 nM [rising, single point]
2 | COc1ccc(-c2cc(-c3ccccc3)c(C#N)c(S(C)(=O)=O)n2)cc1 |  | 6510 nM [rising, single point] | 
3 | CCOc1ccccc1NC(=O)NCc1ccc2c(c1)OCO2 | 49.3 |  | 
4 | Cc1ccc(-c2nc3ncccc3o2)cc1NC(=O)CC(C)C | -16.7 |  | 1460 nM [falling, full curve, poor fit]
5 | Cc1ccc(SCC(=O)NCc2cccnc2)cc1 | 60.2 | 13000 nM [rising, partial curve, poor fit] | 6510 nM [rising, single point]
6 | CC(C)CC(=O)c1c[nH]c(C(=O)NCc2ccc(F)cc2)c1 |  |  | 1160 nM [rising, full curve, poor fit]
7 | CC1CN(C(=O)CS(=O)(=O)Cc2ccc(Cl)cc2)CC(C)O1 (stereo not given) | -16.6 |  | 398 nM [falling, full curve, poor fit]
8 | CC1CC(C)CN(S(=O)(=O)c2ccc(NC(=O)C3CC(=O)N(Cc4ccccc4)C3)cc2)C1 (stereo not given) | 32.5 | 29100 nM [rising, single point] | 29100 nM [falling, single point]
9 | O=[N+]([O-])c1ccc(-c2csc(N/N=C/c3cccnc3)n2)cc1 | -8.49 |  | 13000 nM [falling, partial curve]
10 | CC(C)OCCCN(CC(O)c1ccccc1)CC(O)c1ccccc1 (stereo not given) | -16.3 | 103 nM [falling, full curve, poor fit] | 116 nM [falling, full curve]
11 | C=CCn1c(COc2ccc(Cl)cc2)nnc1SCc1ccc(C#N)cc1 | 10.5 | 2060 nM [rising, partial curve] | 920 nM [rising, full curve]
12 | Nc1c([N+](=O)[O-])cc(-c2cnc[nH]2)cc1[N+](=O)[O-] | 7.22 | 2590 nM [rising, single point] | 
13 | Oc1ccc(Cl)cc1/C=C/c1ccc2cccc(O)c2n1 | -26.8 |  | 32600 nM [falling, partial curve, poor fit]
14 | CCCCC(=Nc1ccc(N)cc1)C1=C(O)C(C(=O)OC)C(C)(C)CC1=O (stereo not given) |  |  | 2060 nM [rising, partial curve, poor fit]
15 | COc1ccccc1N1CCN(Cc2nc3ccsc3c(=O)[nH]2)CC1 | -2.37 |  | 103 nM [rising, full curve, poor fit]
16 | CCCS(=O)(=O)c1c(S(=O)(=O)CCC)c2ccccn2c1C(=O)OC | -11.3 |  | 
17 | CCOC(=O)C(Cc1ccccc1)NC(=O)CCc1nnc2ccc(N3CCOCC3)nn12 (stereo not given) | 11.8 |  | 
18 | O=C(COC(=O)CC(c1ccccc1)c1ccccc1)NCc1ccccc1 | 8.11 | 3660 nM [rising, single point] | 3660 nM [rising, full curve, poor fit]
19 | COc1ccc(OC)c(NC(=O)CN2CCc3ccccc3C2)c1 | 9.27 |  | 
20 | CCN(CC)CCNC(=O)Cn1c(C)cc2ccccc2c1=O | -29.9 |  | 10300 nM [falling, partial curve, poor fit]

For convenience, part of the list above:
Row | Structure (SMILES) | cell number change [%] | AC50 [1] | AC50 [2]
14 | CCCCC(=Nc1ccc(N)cc1)C1=C(O)C(C(=O)OC)C(C)(C)CC1=O (stereo not given) |  |  | 2060 nM [rising, partial curve, poor fit]
15 | COc1ccccc1N1CCN(Cc2nc3ccsc3c(=O)[nH]2)CC1 | -2.37 |  | 103 nM [rising, full curve, poor fit]
16 | CCCS(=O)(=O)c1c(S(=O)(=O)CCC)c2ccccn2c1C(=O)OC | -11.3 |  | 
17 | CCOC(=O)C(Cc1ccccc1)NC(=O)CCc1nnc2ccc(N3CCOCC3)nn12 (stereo not given) | 11.8 |  | 

Additional compounds

Row | Structure (SMILES) | cell number change [%] | AC50 [1] | AC50 [2]
21 | COc1ccc2c(c1)cc(C)c1nnc(SCC(=O)N3CCN(C(=O)c4ccco4)CC3)n12 | -0.776 |  | 9200 nM [rising, partial curve]
22 | CC(C)Cc1nnc(NC(=O)C2CCCC2)s1 | 18.8 | 3260 nM [rising, partial curve, poor fit] | 920 nM [rising, partial curve]
23 | Cc1ccc(Cl)cc1NC(=O)CC(O)(C(F)(F)F)C(F)(F)F | -208 |  | 731 nM [rising, partial curve]
24 | COc1ccc(Cl)cc1N1C(=O)/C(=C\c2sccc2C)N=C1SCC(=O)NC1CC1 | 3.38 | 920 nM [rising, full curve] | 1300 nM [rising, full curve]
25 | O=C(Nc1ccc(Cc2nc3ccccc3s2)cc1)c1ccncc1 | 2.63 |  | 35500 nM [rising, single point]
26 | CCOC(=O)/C(C#N)=C/c1cn(CCOc2ccccc2)c2ccccc12 | -4.32 |  | 820 nM [rising, partial curve, poor fit]
27 | CCC(=O)c1cc(F)c(N2CCN(S(=O)(=O)c3ccc(C)cc3)CC2)cc1C | -21.4 |  | 2310 nM [rising, partial curve, poor fit]
28 | CC1CCc2c(sc(NC(=O)CSc3ncnc4c3cnn4-c3ccccc3Cl)c2C#N)C1 (stereo not given) | 0.621 |  | 291 nM [falling, full curve, poor fit]
29 | CC(=O)c1cccc(NC(=S)Nc2ccn(Cc3cccc4ccccc34)n2)c1 | 9.72 |  | 
30 | O=C(Nc1ccc2nc(-c3cccs3)[nH]c2c1)c1cccs1 | -20.7 |  | 4110 nM [rising, full curve]
31 | O=c1[nH]c2c(s1)C(c1ccc(O)cc1)C1C3CCC(C3)C1S2 (stereo not given) | 1.65 |  | 18400 nM [falling, single point]
32 | O=C(CC1C(=O)NCCN1Cc1ccc(-c2ccccc2)cc1)NCCCn1ccnc1 (stereo not given) | 2.19 |  | 820 nM [falling, full curve, poor fit]
33 | Cc1ccc(N(CC(=O)NC(C)c2ccccc2)S(=O)(=O)c2cccs2)cc1 (stereo not given) | -51 | 29100 nM [falling, single point] | 
34 | O=C(NCc1ccccc1)c1nc[nH]c1C(=O)N1CCN(c2ccccc2)CC1 | -5.9 |  | 9.2 nM [falling, full curve, poor fit]
35 | Cc1sc2nc3n(c(=O)c2c1C)CCCS3 | -13.1 |  | 
36 | O=C(c1cc2nc(-c3ccccc3)cc(C(F)(F)F)n2n1)N1CCOCC1 | 5.66 |  | 2910 nM [rising, partial curve, poor fit]
37 | O=c1nc2n(c3c1oc1ccccc13)Cc1ccccc1-2 |  | 130 nM [rising, full curve, poor fit] | 
38 | COc1ccc(S(=O)(=O)N(CCCN2CCCC2=O)Cc2cc3c(C)ccc(C)c3[nH]c2=O)cc1 |  | 366 nM [rising, partial curve, poor fit] | 731 nM [rising, partial curve]
39 | COc1ccc(C(=O)N/C(=C/c2ccccc2F)C(=O)NCCN2CCOCC2)cc1OC | -26.3 |  | 580 nM [falling, single point]
40 | O=C(NN=C1CCCC1)c1ccccc1O | 5.56 |  | 29100 nM [rising, single point]

Row | Structure (SMILES) | cell number change [%] | AC50 [1] | AC50 [2]
41 | N#Cc1c(SCC(=O)Nc2ccc(C(F)(F)F)cc2)sc2c(O)cc(=O)[nH]c12 | 9.24 |  | 29100 nM [falling, single point]
42 | O=c1cc(CSc2nnc(COc3ccccc3Cl)o2)nc2sccn12 | 8.14 |  | 
43 | CCOC(=O)c1cccc(NC(=O)CCCn2c(=O)c3cccn3c3cccnc32)c1 | -11.1 |  | 8200 nM [falling, partial curve]
44 | CCSc1ccc(C(=O)NCC(=O)O)cc1 | -0.794 |  | 
45 | CCN(CC)c1nc(N)n(CCSC(=S)N(C)C)c(=O)n1 | -12.9 |  | 3660 nM [falling, single point]
46 | CCOC(=O)c1sc(NC(=O)c2ccc(S(=O)(=O)N3CCOCC3)cc2)cc1C | -10.7 |  | 
47 | COc1ccc(CNC(=O)Cn2nc(-c3ccc4c(c3)OCCO4)ccc2=O)cc1 | -1.67 |  | 
48 | Cc1cccc(N(CC(N)=O)S(C)(=O)=O)c1C | -150 | 29100 nM [falling, single point] | 29100 nM [falling, single point]
49 | Cc1ccc(C(=O)Nn2cnc3ccccc3c2=O)cc1C | -15.3 |  | 3260 nM [rising, single point]
50 | CCc1ccc(OCCCC(=O)Nc2ccc(S(=O)(=O)Nc3cc(C)nc(C)n3)cc2)cc1 | 9.66 |  | 
51 | COc1ccc(Cl)c(Cn2c(NCc3ccco3)nc3c2c(=O)n(C)c(=O)n3C)c1 | -62.2 | 5800 nM [falling, full curve] | 1640 nM [falling, full curve]
52 | COc1ccc(C)cc1NC(=S)NNC(=O)c1c(Br)cnn1C | -39.7 |  | 
53 | CCc1nnc(SCc2ccc(CSc3nnc(CC)n3N)cc2)n1N | 5.12 |  | 2310 nM [falling, partial curve, poor fit]
54 | O=C(Cc1n[nH]c(=O)c2ccccc12)Nc1cc(Cl)ccc1-n1cncn1 | 23.8 |  | 366 nM [rising, full curve]
55 | CN(C)S(=O)(=O)n1cc(/C=C(\NC(=O)c2ccccc2)C(=O)NCCCn2ccnc2)c2ccccc21 | 9.63 |  | 4110 nM [rising, full curve]
56 | O=C(CN(CC1CCCO1)C(=O)CCC(=O)Nc1nccs1)NCC1CCCO1 (stereo not given) | 36.5 | 29100 nM [rising, single point] | 29100 nM [rising, single point]
57 | CCCN1Cc2cccc(C(=O)Nc3ccc(-c4nc5ccccc5[nH]4)cc3)c2C1=O | 42.6 | 7310 nM [rising, partial curve] | 103 nM [falling, full curve, poor fit]
58 | Cc1cc(Br)ccc1SCC(=O)OCC(=O)N1CCN(C(=O)c2ccco2)CC1 | 0.97 |  | 411 nM [rising, full curve]
59 | COc1ccc(/C=N/NC(=O)c2cccc(NC(=O)c3ccccc3)c2)c(C(=O)O)c1OC | 31.6 | 3660 nM [rising, partial curve] | 1840 nM [rising, partial curve, poor fit]
